The test system of data set [1] is Polyamine pools in L1210 cells. In words: Effect on polyamine pools in L1210 cells. The class given is cell-based.
The test system of data set [2] is Polyamine pools in L1210 cells. The following applies: cited from earlier work.

Results on three compounds are retold here after patent US7423182B2, “Aminated polyamines” (University of Florida, priority 2004, dated 2008).

Where two headings read alike, the source gives them in different places.

With `CCNCCCNCCC(N)CNCCCNCC` (centres unmarked) [6-NH2-DESPM, 6 amino-N^1,N^12-diethylspermine], the analogue amount in data set [1] (10 µM) turned out to be 3.52 ± 0.73 nmol/10^6 cells; in data set [1] (50 µM), 3.10 ± 0.12 nmol/10^6 cells.
Turning to `CCNCCCNCCCCNCCCNCC` [DESPM], the analogue amount was 0.4 nmol/10^6 cells in data set [2] (30 µM) and 1.13 nmol/10^6 cells in data set [2] (150 µM).
With `FC(F)(F)CNCCCNCCCCNCCCNCC(F)(F)F` [FDESPM], the analogue amount in data set [2] (100 µM) was under 0.02 nmol/10^6 cells.
